The text below walks through data of article doi:10.1101/2020.07.05.188557.

Experiment in all cases: split reporter
For test [1], the target named is agp1-10TM-Cub-GST (S. cerevisiae).
The target of test [2] is agp1-12TM-Cub-GST (S. cerevisiae).
Test [3] deals with agp1-2TM-Cub-GST (S. cerevisiae).
Test [4] concerns the target agp1-4TM-Cub-GST (S. cerevisiae).
Test [5] deals with agp1-6TM-Cub-GST (S. cerevisiae).
The target of test [6] is agp1-8TM-Cub-GST (S. cerevisiae).
The target in test [7] is ssy1-10TM-Cub-GST (S. cerevisiae).
Test [8] concerns the target ssy1-12TM-Cub-GST (S. cerevisiae).
In test [9] the target is ssy1-2TM-Cub-GST (S. cerevisiae).
For test [10], the target named is ssy1-4TM-Cub-GST (S. cerevisiae).
In test [11] the target is ssy1-6TM-Cub-GST (S. cerevisiae).
In test [12] the target is ssy1-8TM-Cub-GST (S. cerevisiae).

Results are given in words; binding and its absence hold for the method and conditions named. In cells and extracts the contact can be indirect. Binding can be weak; no strength is given.

B1: Shr3Δ94-NubA (protein, UniProt Q02774)
chain: MFSYSDFCSIGTAMILSATTFLMGVFFSNMPYDYHLLFNPNSTQEHFDLALRHYQILHETPLPVIVTLCVVAGIGLVGGTIKVFKPNPELQMFEYCSLGLYVLAICVFLTNVKTGIDCSVTENQGLAVIASSNIILLVMFAGVIILQIGLWYSNWDLQKRLKEFYAQEEREAANAGKKTEKVDNAKKNDNKSKGAQKRKNAKK
Turning to B1, the binding result is reported as “binds” in test [1]; “binds weakly” in [2]; “binds” in [3]; “binds” in [4]; “binds” in test [5]; “binds” in test [6]. Besides, the binding entry in test [7], in test [8], in test [9], in test [10], in test [11] and in [12] was “binds” each time.
